Reference: PubChem BioAssay AID493014 (National Center for Advancing Translational Sciences (NCATS), 2011)
Some of the results follow. Shown are side measurements of this screen, not its main read-out; they come without a call. The list favours compounds with an active or inconclusive main result. The note in brackets gives the kind of curve behind each potency; many fits are weak.

Assay: qHTS Assay to Find Inhibitors of Chronic Active B-Cell Receptor Signaling
Settings: ABC-DLBCL IkBa-CBG/CBR reporter, luminescence ratio (green luciferase fused to IkBa over red control in TMD8 lymphoma cells), 4 h
In short: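 TMD8 ABC-DLBCL cells carrying doxycycline-inducible green luciferase fused to IkappaBalpha plus unfused red luciferase were exposed to compounds (up to 46 uM) for 4 hrs at 37C. Activity came from the overlap-corrected green/red luminescence ratio.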

[1] = measured here: CBR red luminescence, cell number
[2] = measured here: IkBa-CBG green luminescence

Row | SMILES | AC50 [1] | AC50 [2]
1 | O=C1C(=O)N(CNc2cccnc2)c2ccccc21 | 13 µM [rising, partial curve, poor fit] | 20.6 µM [falling, partial curve, poor fit]
2 | Cn1c(=O)n(Cc2ccccc2)c(=O)c2c1nc1n2CCN1Cc1ccco1 | 35.5 µM [falling, single point] | –
3 | Cc1cccc(NC(=O)c2nc(S(=O)(=O)Cc3ccccc3)ncc2Cl)c1 | 10 µM [falling, partial curve] | –
4 | COc1ccccc1CN1CCNC(=O)C1CC(=O)NCc1cn(C)nc1C (stereo unspecified) | 28.2 µM [rising, partial curve, poor fit] | –
5 | CCC(C)c1ccc(O)c(/C=N/O)c1 (stereo unspecified) | 20.6 µM [rising, partial curve, poor fit] | –
6 | CCCOc1ncnc2c1[nH]c1ccc(C)cc12 | 0.708 µM [rising, partial curve, poor fit] | –
7 | Cc1ccc(/C=C(\C#N)C(=O)NCc2ccco2)o1 | 12.6 µM [falling, single point] | –
8 | O=C(Nc1ccc(C2=NCCN2)cc1)c1ccc(C(=O)Nc2ccc(C3=NCCN3)cc2)c([N+](=O)[O-])c1 | 35.5 µM [rising, single point] | –
9 | Cc1ccc2nc(SCC(=O)c3ccccc3)nc(=O)n2c1 | 2.31 µM [falling, full curve] | –
10 | CC1(C)CN=c2s/c(=C\c3ccc(Cl)cc3)c(=O)n2C1 | 35.5 µM [falling, single point] | –
11 | CNC(=O)NC(=S)NC(=O)c1ccccc1Cl | 11.2 µM [falling, partial curve] | –
12 | O=C(c1cccc(COc2cccc3ccccc23)c1)N1CCCC1 | 20.6 µM [falling, partial curve] | –
13 | CCCc1cc(=O)oc2cc(OCC(=O)NC3CCN(Cc4ccccc4)CC3)ccc12 | 3.16 µM [falling, partial curve, poor fit] | –
14 | CCOc1ccccc1Cn1c(=O)oc2ccc(C)cc21 | 14.6 µM [rising, partial curve, poor fit] | –
15 | Cn1c(SCC(=O)NNC(=O)Nc2ccc(Cl)cc2)nnc1-c1ccccc1 | 0.447 µM [rising, full curve, poor fit] | –
16 | Cc1ccc(NC(=O)c2cc(-c3cccs3)on2)cc1 | 10.3 µM [falling, partial curve, poor fit] | –
17 | O=C(Nc1ccccc1Br)N1CCC(CN2CCCC2)CC1 | 10 µM [rising, partial curve] | –
18 | OC1CCN(c2cc(-c3ccccc3)nc3cc(-c4ccc(F)cc4)nn23)CC1 | 1 µM [falling, partial curve, poor fit] | –
19 | CCN(CC)CCN1c2ccccc2Sc2ccccc21 | 11.2 µM [falling, single point] | –
20 | CN1C(=O)/C(=C/c2ccco2)SC1=Nc1cccc(C(=O)O)c1 | 11.2 µM [rising, single point] | –
21 | Cc1cc([N+](=O)[O-])ccc1Nc1nc2ccccc2n2cnnc12 | – | 17.8 µM [falling, partial curve, poor fit]
22 | CC(CC(=O)Nc1ccc(Cl)c(S(=O)(=O)N2CCOCC2)c1)c1ccccc1 (stereo unspecified) | 0.58 µM [rising, full curve, poor fit] | –

Row | SMILES | AC50 [1] | AC50 [2]
23 | Cc1ccc(-c2cc(NC(=O)c3ccccc3[N+](=O)[O-])n[nH]2)cc1 | 8.91 µM [falling, partial curve, poor fit] | –
24 | CCOc1ccc(S(=O)(=O)Nc2ccc3c(c2)n(C)c(=O)n3C)cc1 | 15.8 µM [rising, single point] | –
25 | C/C(=N\Nc1ccc(C)c(Cl)c1)c1ccncc1 | 10 µM [rising, partial curve, poor fit] | –
26 | c1ccc(COC2CCCN(Cc3nc(-c4cccs4)no3)C2)nc1 (stereo unspecified) | 14.1 µM [rising, single point] | –
27 | O=C(COC(=O)CCc1ccccc1)NCc1ccc2c(c1)OCO2 | 4.11 µM [rising, full curve, poor fit] | –
28 | CCOc1ccc(NC(=O)CC2C(=O)NCCN2C(=O)Nc2ccccc2)cc1 (stereo unspecified) | 17.8 µM [rising, partial curve, poor fit] | –
29 | CCOC(=O)c1cc2nc(Nc3ccc(OC)cc3)sc2s1 | 8.91 µM [rising, partial curve] | –
30 | Cc1ccc(NC(=S)Nc2ncccc2C)c(C)c1 | 17.8 µM [rising, single point] | –
31 | Nc1ccccc1-c1nnc(SCc2ccccc2Cl)[nH]c1=O | 13 µM [falling, partial curve] | –
32 | [O-][n+]1c2c(nn1-c1ccccc1)/C(=N/O)CCC2 | 35.5 µM [rising, single point] | –
33 | CC(C)Oc1ccccc1OCCN(C)C | 3.66 µM [rising, single point] | –
34 | CCOC(=O)C1=C(c2ccccc2)OC(N)=C(C#N)C1c1cccnc1 (stereo unspecified) | 3.55 µM [falling, partial curve, poor fit] | –
35 | N#C/C(Cn1c[n+](NC(=O)Nc2ccccc2)cn1)=N/O | 0.2 µM [rising, full curve] | –
36 | CC1CCN(CC(=O)N2CCc3ccccc32)CC1 | 3.16 µM [rising, partial curve, poor fit] | –
37 | Cc1cc(Br)cc(/C=N/NC(=O)c2ccc3c(c2)OCO3)c1O | 4.47 µM [falling, full curve, poor fit] | –
38 | O=C(O)C1CC(c2ccccc2F)=NO1 (stereo unspecified) | 0.231 µM [rising, full curve, poor fit] | –
39 | O=C(CSc1nnc(COc2cccc3cccnc23)o1)c1ccc(F)cc1 | 12.6 µM [falling, single point] | –
40 | O=C(NC1=NCCS1)c1cc(-c2cccnc2)nc2ccccc12 | 2.82 µM [falling, partial curve, poor fit] | –
41 | Oc1ccc(C[C@H]2CNCCN2CCCCC2CCCCC2)cc1 | 5.8 µM [falling, partial curve, poor fit] | –
42 | CCOc1ccccc1N(CC(=O)Nc1ccc(OC)c(OC)c1)S(=O)(=O)c1ccccc1 | 35.5 µM [falling, partial curve, poor fit] | –
43 | COC(=O)c1cccc(C23CC4(C2)[C@H](CN(Cc2cccnc2)[C@@H]4c2ccccc2)C3c2ccc(Cl)nc2)c1 (stereo partly specified) | 3.16 µM [falling, partial curve, poor fit] | –
44 | CCOC(=O)c1oc2ccccc2c1COC(=O)CNC(=O)c1ccccc1OC | 2.31 µM [rising, full curve, poor fit] | –

4 structures out of the list, arranged by SMILES length, rising:
Row | SMILES | AC50 [1] | AC50 [2]
25 | C/C(=N\Nc1ccc(C)c(Cl)c1)c1ccncc1 | 10 µM [rising, partial curve, poor fit] | –
32 | [O-][n+]1c2c(nn1-c1ccccc1)/C(=N/O)CCC2 | 35.5 µM [rising, single point] | –
27 | O=C(COC(=O)CCc1ccccc1)NCc1ccc2c(c1)OCO2 | 4.11 µM [rising, full curve, poor fit] | –
24 | CCOc1ccc(S(=O)(=O)Nc2ccc3c(c2)n(C)c(=O)n3C)cc1 | 15.8 µM [rising, single point] | –

Remaining list, next part

Row | SMILES | AC50 [1] | AC50 [2]
45 | CN1CCN(C2Cc3ccccc3Sc3ccc(Cl)cc32)CC1 (stereo unspecified) | 9.2 µM [falling, partial curve] | –
46 | C=C(C)COc1ccc(-c2nc(N)ncc2-c2ccccc2OC)c(O)c1 | 0.631 µM [rising, full curve, poor fit] | –
47 | CCOc1ccc(C(=O)C(CN2CCOCC2)c2ccccc2)cc1 (stereo unspecified) | 29.1 µM [falling, single point] | –
48 | Cc1cc(C(=O)NC2CCCc3c2cnn3-c2ccc(C(C)(C)C)cc2)nn1C (stereo unspecified) | 35.5 µM [falling, single point] | –
49 | Cc1nn(CCCNC(=O)C2CCCO2)cc1Br (stereo unspecified) | 0.517 µM [falling, full curve, poor fit] | –
50 | CC1(C)CC(=O)C2=C(C1)N(CC1CCCO1)C(=O)C2(O)C(F)(F)F (stereo unspecified) | 29.1 µM [rising, single point] | –
51 | Cc1ccc(S(=O)(=O)N2CCCC2)cc1C(=O)NCc1ccccn1 | 11.2 µM [falling, partial curve, poor fit] | –
52 | COc1cccc(C2SCC(=O)N2c2cccc(C)c2)c1OC (stereo unspecified) | 4.11 µM [rising, full curve, poor fit] | –
53 | CCN(CC)CC(O)CN1c2ccccc2Sc2ccccc21 (stereo unspecified) | 15.8 µM [falling, single point] | –
54 | O=C(Nc1ccc(Cl)c(Cl)c1)c1csc(-c2ccccc2)n1 | 2.59 µM [rising, partial curve, poor fit] | –
55 | CCN1CCN(S(=O)(=O)c2ccc(Cl)c(C(=O)N(C)Cc3ccccc3)c2)CC1 | 29.1 µM [rising, single point] | –
56 | COc1ccc(C)cc1Nc1nc(N)c2cc(OC)c(OC)cc2n1 | 2.82 µM [falling, partial curve] | –
57 | CC(C(=O)Nc1ccccc1F)N1CCN(C)CC1 (stereo unspecified) | 12.6 µM [rising, partial curve, poor fit] | –
58 | COCc1cc(C)nc(SCc2ccccc2)c1C#N | 35.5 µM [rising, single point] | –
59 | CCOc1cc(C(=O)Nc2cc(F)ccc2C)ccc1OCC(=O)N1CCOCC1 | 0.731 µM [rising, full curve, poor fit] | –
60 | CCCCn1c(=NC(=O)c2ccco2)c(C(=O)OCC)cc2c(=O)n3cccc(C)c3nc21 | – | 14.1 µM [rising, single point]
61 | CCc1cccc(NC(=O)C2CCN(S(=O)(=O)c3cccc(-c4noc(C)n4)c3)CC2)c1 | 0.158 µM [falling, full curve, poor fit] | –
62 | O=C(CSc1nnc(-c2ccco2)n1Cc1ccccc1)NC(=O)NCc1ccccc1 | 20 µM [falling, single point] | –
63 | C=CC[C@@H](Cc1ccc(F)cc1)C(=O)OC[C@@H]1CCCN1C(=O)[C@@H](CC=C)CC(=O)N[C@@H](CO)Cc1ccccc1 | 18.4 µM [falling, partial curve] | –
64 | CC1(C)Cc2c(cnn2-c2cccc(F)c2)C(NC(=O)CSc2ccncc2)C1 (stereo unspecified) | 6.31 µM [falling, single point] | –
65 | CC(C)(C)NC(=O)CSc1nncn1NCc1cccc2ccccc12 | 18.4 µM [falling, single point] | –
